Screening data, single-dose tests

Measurements from “University of Dundee, Small-Polar-MMV Screening Library” (2021), ChEMBL document CHEMBL3988442.

Mtb cholesterol medium: 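Whole-cell growth test on Mycobacterium tuberculosis, read after 4 days in a medium based on cholesterol and the lipid DPPC; the read-out is not stated. Tested at 50 µM. Direction is inferred from retests: higher values go with more growth inhibition. Of about 69,000 compounds tested this way, about 370 (0.54%) reached 50% or more in at least one test.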
Mtb glucose medium: 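Phenotypic screen: M. tuberculosis growth, glucose 7H9 medium, 3 days; the read-out is not stated. Tested at 50 µM. Direction is inferred from retests: higher values go with more growth inhibition. About 69,000 compounds were tested under these conditions; 1.1% (about 760) showed 50% or more at least once.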

Each number is a percent effect as filed. The controls that fix the scale are not given in the record; negative values are as filed. This is an unselected part of the compounds tested. Two or more numbers in one place are separate tests of the same structure; such repeats can differ widely.

{"compound": "Cc1cc(CNc2ccc(C(F)(F)F)cc2)no1", "Mtb cholesterol medium": 50.66, "Mtb glucose medium": 39.35}
{"compound": "Cc1noc2ncc(C(=O)NCC3CCCO3)cc12", "stereo": "stereo not given", "Mtb cholesterol medium": -8.853, "Mtb glucose medium": -18.06}
{"compound": "COC(=O)C(CNC(=O)Nc1cn[nH]c1)Cc1cccc(C)c1", "stereo": "stereo not given", "Mtb cholesterol medium": 20.3, "Mtb glucose medium": -26.91}
{"compound": "CCN(Cc1nc2c(cnn2C)c(=O)[nH]1)c1cc(C)cc(C)c1", "Mtb cholesterol medium": 8.426, "Mtb glucose medium": 11.86}
{"compound": "CCOCCCNC(=O)c1nn(CC)cc1Cl", "Mtb cholesterol medium": -15.83, "Mtb glucose medium": 5.165}
{"compound": "O=C1CCCCN1CCc1nc(-c2cccnn2)no1", "Mtb cholesterol medium": 5.455, "Mtb glucose medium": 4.779}
{"compound": "Cc1cccc2c1C(=O)NC(c1cnc(C3CCC3)s1)N2", "stereo": "stereo not given", "Mtb cholesterol medium": -2.867, "Mtb glucose medium": -7.752}
{"compound": "OCC1CCN(Cc2cc3c(cc2Br)OCCO3)CC1", "Mtb cholesterol medium": 18.83, "Mtb glucose medium": "3.724 & 0.01411"}
{"compound": "NC(=O)Cn1cc(NC(=O)N2CCN(c3ccc(F)cc3)CC2)cn1", "Mtb cholesterol medium": 8.398, "Mtb glucose medium": 16.5}
{"compound": "CCOCc1nn(C)c2c1CN(C(=O)c1ccno1)CC2", "Mtb cholesterol medium": 23.79, "Mtb glucose medium": "0.4802 & 8.591"}
{"compound": "N#CCCCOc1cccnc1NC(=O)Cc1ccccc1F", "Mtb cholesterol medium": 7.98, "Mtb glucose medium": 18.05}
{"compound": "O=C(O)C(F)(F)F.[H][C@@]12CCN(c3ncccn3)C[C@@]1([H])O[C@H](C(=O)NCCOC)C2", "Mtb cholesterol medium": -14.49, "Mtb glucose medium": -16.3}
{"compound": "O=C(c1cc[nH]n1)N1CCc2c(nc(N3CCCCC3)[nH]c2=O)C1", "Mtb cholesterol medium": 3.412, "Mtb glucose medium": 13.73}
{"compound": "Cc1ncsc1CCN(C)C(=O)C(c1cccnc1)N1CCOCC1", "stereo": "stereo not given", "Mtb cholesterol medium": 18.4, "Mtb glucose medium": 4.287}
{"compound": "[H][C@]12C[C@H](C(=O)NC)N(S(C)(=O)=O)[C@@]1([H])CN(C(=O)c1ccoc1)C2", "Mtb cholesterol medium": -16.6, "Mtb glucose medium": -16.12}
{"compound": "CN(CC(=O)N1CCC(N(C)c2ccccc2)CC1)c1cnccn1", "Mtb cholesterol medium": -2.289, "Mtb glucose medium": -3.7}
{"compound": "COc1ccc(CNC(=O)c2ccc(Cl)cc2F)cc1C(=O)O", "Mtb cholesterol medium": -13.58, "Mtb glucose medium": -1.856}
{"compound": "N#Cc1cccc(S(=O)(=O)N2CC(CC(=O)O)c3ccccc32)c1", "stereo": "stereo not given", "Mtb cholesterol medium": 10.26, "Mtb glucose medium": 3.962}
{"compound": "Cc1nc(COCc2nc3c(o2)CN(C(=O)c2ccc[nH]2)C3)cs1.O=C(O)C(F)(F)F", "Mtb cholesterol medium": -11.54, "Mtb glucose medium": "-5.964 & 4.943"}
{"compound": "Cc1cc(-n2cccn2)ccc1CN1C[C@@H](CN(C)C)[C@@H](CO)C1", "Mtb cholesterol medium": 19.17, "Mtb glucose medium": "-0.5231 & 4.145"}
{"compound": "CCn1cc(-c2nn3c(C(C)C)nnc3s2)c(C)n1", "Mtb cholesterol medium": -9.13, "Mtb glucose medium": -13.69}
{"compound": "Cn1c(C(=O)N(CC(N)=O)C2CCCC2)cc(Cl)c1Cl", "Mtb cholesterol medium": 21.04, "Mtb glucose medium": 8.956}
{"compound": "CCc1nccn1C1CCCN(C(=O)c2c(C)nsc2NC)C1", "stereo": "stereo not given", "Mtb cholesterol medium": -10.36, "Mtb glucose medium": -30.6}

The last 2 entries again:

Result for Cn1c(C(=O)N(CC(N)=O)C2CCCC2)cc(Cl)c1Cl was Mtb cholesterol medium: 21.04%; Mtb glucose medium: 8.956%.
Result for CCc1nccn1C1CCCN(C(=O)c2c(C)nsc2NC)C1 (stereo not given) was Mtb cholesterol medium: -10.36%; Mtb glucose medium: -30.6%.